{
  "sequences": {"note": "Chains of the proteins cited; added tags and fusions are not shown.", "UniProt P28632": "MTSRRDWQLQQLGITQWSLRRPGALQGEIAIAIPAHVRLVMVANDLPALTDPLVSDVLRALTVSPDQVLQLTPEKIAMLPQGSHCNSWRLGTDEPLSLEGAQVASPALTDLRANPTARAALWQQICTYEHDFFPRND"},
  "source": "paper doi:10.1101/2021.12.08.471875",
  "binders": {"B1": {"name": "GuaA (enzyme, UniProt P04079 1-525)", "chain": "MTENIHKHRILILDFGSQYTQLVARRVRELGVYCELWAWDVTEAQIRDFNPSGIILSGGPESTTEENSPRAPQYVFEAGVPVFGVCYGMQTMAMQLGGHVEASNEREFGYAQVEVVNDSALVRGIEDALTADGKPLLDVWMSHGDKVTAIPSDFITVASTESCPFAIMANEEKRFYGVQFHPEVTHTRQGMRMLERFVRDICQCEALWTPAKIIDDAVARIREQVGDDKVILGLSGGVDSSVTAMLLHRAIGKNLTCVFVDNGLLRLNEAEQVLDMFGDHFGLNIVHVPAEDRFLSALAGENDPEAKRKIIGRVFVEVFDEEALKLEDVKWLAQGTIYPDVIESAASATGKAHVIKSHHNVGGLPKEMKMGLVEPLKELFKDEVRKIGLELGLPYDMLYRHPFPGPGLGVRVLGEVKKEYCDLLRRADAIFIEELRKADLYDKVSQAFTVFLPVRSVGVMGDGRKYDWVVSLRAVETIDFMTAHWAHLPYDFLGRVSNRIINEVNGISRVVYDISGKPPATIEWE"}, "B2": {"name": "topoisomerase III (protein, UniProt P14294 1-653)", "chain": "MRLFIAEKPSLARAIADVLPKPHRKGDGFIECGNGQVVTWCIGHLLEQAQPDAYDSRYARWNLADLPIVPEKWQLQPRPSVTKQLNVIKRFLHEASEIVHAGDPDREGQLLVDEVLDYLQLAPEKRQQVQRCLINDLNPQAVERAIDRLRSNSEFVPLCVSALARARADWLYGINMTRAYTILGRNAGYQGVLSVGRVQTPVLGLVVRRDEEIENFVAKDFFEVKAHIVTPADERFTAIWQPSEACEPYQDEEGRLLHRPLAEHVVNRISGQPAIVTSYNDKRESESAPLPFSLSALQIEAAKRFGLSAQNVLDICQKLYETHKLITYPRSDCRYLPEEHFAGRHAVMNAISVHAPDLLPQPVVDPDIRNRCWDDKKVDAHHAIIPTARSSAINLTENEAKVYNLIARQYLMQFCPDAVFRKCVIELDIAKGKFVAKARFLAEAGWRTLLGSKERDEENDGTPLPVVAKGDELLCEKGEVVERQTQPPRHFTDATLLSAMTGIARFVQDKDLKKILRATDGLGTEATRAGIIELLFKRGFLTKKGRYIHSTDAGKALFHSLPEMATRPDMTAHWESVLTQISEKQCRYQDFMQPLVGTLYQLIDQAKRTPVRQFRGIVAPGSGGSADKKKAAPRKRSAKKSPPADEVGSGAIA"}, "B3": {"name": "SspA (protein, UniProt P0ACA3 1-212)", "chain": "MAVAANKRSVMTLFSGPTDIYSHQVRIVLAEKGVSFEIEHVEKDNPPQDLIDLNPNQSVPTLVDRELTLWESRIIMEYLDERFPHPPLMPVYPVARGESRLYMHRIEKDWYTLMNTIINGSASEADAARKQLREELLAIAPVFGQKPYFLSDEFSLVDCYLAPLLWRLPQLGIEFSGPGAKELKGYMTRVFERDSFLASLTEAEREMRLGRS"}, "B4": {"name": "PlsB (enzyme, UniProt P0A7A7 1-807)", "chain": "MSGWPRIYYKLLNLPLSILVKSKSIPADPAPELGLDTSRPIMYVLPYNSKADLLTLRAQCLAHDLPDPLEPLEIDGTLLPRYVFIHGGPRVFTYYTPKEESIKLFHDYLDLHRSNPNLDVQMVPVSVMFGRAPGREKGEVNPPLRMLNGVQKFFAVLWLGRDSFVRFSPSVSLRRMADEHGTDKTIAQKLARVARMHFARQRLAAVGPRLPARQDLFNKLLASRAIAKAVEDEARSKKISHEKAQQNAIALMEEIAANFSYEMIRLTDRILGFTWNRLYQGINVHNAERVRQLAHDGHELVYVPCHRSHMDYLLLSYVLYHQGLVPPHIAAGINLNFWPAGPIFRRLGAFFIRRTFKGNKLYSTVFREYLGELFSRGYSVEYFVEGGRSRTGRLLDPKTGTLSMTIQAMLRGGTRPITLIPIYIGYEHVMEVGTYAKELRGATKEKESLPQMLRGLSKLRNLGQGYVNFGEPMPLMTYLNQHVPDWRESIDPIEAVRPAWLTPTVNNIAADLMVRINNAGAANAMNLCCTALLASRQRSLTREQLTEQLNCYLDLMRNVPYSTDSTVPSASASELIDHALQMNKFEVEKDTIGDIIILPREQAVLMTYYRNNIAHMLVLPSLMAAIVTQHRHISRDVLMEHVNVLYPMLKAELFLRWDRDELPDVIDALANEMQRQGLITLQDDELHINPAHSRTLQLLAAGARETLQRYAITFWLLSANPSINRGTLEKESRTVAQRLSVLHGINAPEFFDKAVFSSLVLTLRDEGYISDSGDAEPAETMKVYQLLAELITSDVRLTIESATQGEG"}, "B5": {"name": "RfaD (enzyme, UniProt P67910 1-310)", "chain": "MIIVTGGAGFIGSNIVKALNDKGITDILVVDNLKDGTKFVNLVDLNIADYMDKEDFLIQIMAGEEFGDVEAIFHEGACSSTTEWDGKYMMDNNYQYSKELLHYCLEREIPFLYASSAATYGGRTSDFIESREYEKPLNVYGYSKFLFDEYVRQILPEANSQIVGFRYFNVYGPREGHKGSMASVAFHLNTQLNNGESPKLFEGSENFKRDFVYVGDVADVNLWFLENGVSGIFNLGTGRAESFQAVADATLAYHKKGQIEYIPFPDKLKGRYQAFTQADLTNLRAAGYDKPFKTVAEGVTEYMAWLNRDA"}, "B6": {"name": "RlmE (enzyme, UniProt P0C0R7 1-209)", "chain": "MTGKKRSASSSRWLQEHFSDKYVQQAQKKGLRSRAWFKLDEIQQSDKLFKPGMTVVDLGAAPGGWSQYVVTQIGGKGRIIACDLLPMDPIVGVDFLQGDFRDELVMKALLERVGDSKVQVVMSDMAPNMSGTPAVDIPRAMYLVELALEMCRDVLAPGGSFVVKVFQGEGFDEYLREIRSLFTKVKVRKPDSSRARSREVYIVATGRKP"}, "B7": {"name": "NrdA (protein, UniProt P00452 1-761)", "chain": "MNQNLLVTKRDGSTERINLDKIHRVLDWAAEGLHNVSISQVELRSHIQFYDGIKTSDIHETIIKAAADLISRDAPDYQYLAARLAIFHLRKKAYGQFEPPALYDHVVKMVEMGKYDNHLLEDYTEEEFKQMDTFIDHDRDMTFSYAAVKQLEGKYLVQNRVTGEIYESAQFLYILVAACLFSNYPRETRLQYVKRFYDAVSTFKISLPTPIMSGVRTPTRQFSSCVLIECGDSLDSINATSSAIVKYVSQRAGIGINAGRIRALGSPIRGGEAFHTGCIPFYKHFQTAVKSCSQGGVRGGAATLFYPMWHLEVESLLVLKNNRGVEGNRVRHMDYGVQINKLMYTRLLKGEDITLFSPSDVPGLYDAFFADQEEFERLYTKYEKDDSIRKQRVKAVELFSLMMQERASTGRIYIQNVDHCNTHSPFDPAIAPVRQSNLCLEIALPTKPLNDVNDENGEIALCTLSAFNLGAINNLDELEELAILAVRALDALLDYQDYPIPAAKRGAMGRRTLGIGVINFAYYLAKHGKRYSDGSANNLTHKTFEAIQYYLLKASNELAKEQGACPWFNETTYAKGILPIDTYKKDLDTIANEPLHYDWEALRESIKTHGLRNSTLSALMPSETSSQISNATNGIEPPRGYVSIKASKDGILRQVVPDYEHLHDAYELLWEMPGNDGYLQLVGIMQKFIDQSISANTNYDPSRFPSGKVPMQQLLKDLLTAYKFGVKTLYYQNTRDGAEDAQDDLVPSIQDDGCESGACKI"}, "B8": {"name": "HldE (enzyme, UniProt P76658 1-477)", "chain": "MKVTLPEFERAGVMVVGDVMLDRYWYGPTSRISPEAPVPVVKVNTIEERPGGAANVAMNIASLGANARLVGLTGIDDAARALSKSLADVNVKCDFVSVPTHPTITKLRVLSRNQQLIRLDFEEGFEGVDPQPLHERINQALSSIGALVLSDYAKGALASVQQMIQLARKAGVPVLIDPKGTDFERYRGATLLTPNLSEFEAVVGKCKTEEEIVERGMKLIADYELSALLVTRSEQGMSLLQPGKAPLHMPTQAQEVYDVTGAGDTVIGVLAATLAAGNSLEEACFFANAAAGVVVGKLGTSTVSPIELENAVRGRADTGFGVMTEEELKLAVAAARKRGEKVVMTNGVFDILHAGHVSYLANARKLGDRLIVAVNSDASTKRLKGDSRPVNPLEQRMIVLGALEAVDWVVSFEEDTPQRLIAGILPDLLVKGGDYKPEEIAGSKEVWANGGEVLVLNFEDGCSTTNIIKKIQQDKKG"}, "B9": {"name": "PriB (protein, UniProt P07013 1-104)", "chain": "MTNRLVLSGTVCRAPLRKVSPSGIPHCQFVLEHRSVQEEAGFHRQAWCQMPVIVSGHENQAITHSITVGSRITVQGFISCHKAKNGLSKMVLHAEQIELIDSGD"}, "B10": {"name": "FbaB (enzyme, UniProt P0A991 1-350)", "chain": "MTDIAQLLGKDADNLLQHRCMTIPSDQLYLPGHDYVDRVMIDNNRPPAVLRNMQTLYNTGRLAGTGYLSILPVDQGVEHSAGASFAANPLYFDPKNIVELAIEAGCNCVASTYGVLASVSRRYAHRIPFLVKLNHNETLSYPNTYDQTLYASVEQAFNMGAVAVGATIYFGSEESRRQIEEISAAFERAHELGMVTVLWAYLRNSAFKKDGVDYHVSADLTGQANHLAATIGADIVKQKMAENNGGYKAINYGYTDDRVYSKLTSENPIDLVRYQLANCYMGRAGLINSGGAAGGETDLSDAVRTAVINKRAGGMGLILGRKAFKKSMADGVKLINAVQDVYLDSKITIA"}},
  "note": "These are yes or no findings as the source states them, for the method shown. Binding seen in cells or lysates may run through a third protein. These calls come from enrichment with a bait or labelling near it, and not all partners need be listed.",
  "data": [
    {"target": "HolD (E. coli) (UniProt P28632)", "assay": "affinity purification with mass spectrometry", "values": [
      {"binder": "B1", "binding": "binds"},
      {"binder": "B2", "binding": "binds"},
      {"binder": "B3", "binding": "binds"}
    ]},
    {"target": "T1, SeqA (E. coli) (UniProt P0AFY8)", "T1 sequence": "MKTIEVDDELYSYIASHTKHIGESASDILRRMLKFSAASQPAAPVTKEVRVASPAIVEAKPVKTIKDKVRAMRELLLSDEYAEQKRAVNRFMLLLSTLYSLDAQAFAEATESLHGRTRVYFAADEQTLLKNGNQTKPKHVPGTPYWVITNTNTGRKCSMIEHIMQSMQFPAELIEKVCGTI", "assay": "affinity purification with mass spectrometry", "values": [
      {"binder": "B4", "binding": "binds"},
      {"binder": "B5", "binding": "binds"}
    ]},
    {"target": "T2, NrdB, a ribonuclotide reductase (RNR) subunit (E. coli) (UniProt P69924)", "T2 sequence": "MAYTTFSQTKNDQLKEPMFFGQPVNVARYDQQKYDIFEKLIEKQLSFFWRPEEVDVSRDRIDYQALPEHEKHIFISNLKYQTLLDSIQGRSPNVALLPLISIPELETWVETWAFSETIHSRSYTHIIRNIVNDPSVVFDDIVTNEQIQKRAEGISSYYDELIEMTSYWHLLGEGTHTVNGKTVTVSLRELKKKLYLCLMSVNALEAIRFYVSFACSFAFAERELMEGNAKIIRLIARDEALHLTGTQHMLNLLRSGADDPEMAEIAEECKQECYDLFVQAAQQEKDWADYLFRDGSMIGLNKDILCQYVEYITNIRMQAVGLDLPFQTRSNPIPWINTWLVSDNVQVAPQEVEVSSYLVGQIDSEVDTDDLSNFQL", "assay": "affinity purification with mass spectrometry", "values": [
      {"binder": "B6", "binding": "binds"},
      {"binder": "B7", "binding": "binds"},
      {"binder": "B8", "binding": "binds"},
      {"binder": "B9", "binding": "binds"},
      {"binder": "B10", "binding": "binds"}
    ]}
  ]
}
